Measurements reported in PubChem BioAssay AID1159584 (Peter MacCallum Cancer Centre, 2016)
Aim: 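Genes whose loss is lethal only together with E-cadherin loss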 (primary screen). System: human MCF10A breast epithelial cells, parental and CDH1-null. Reagent: siRNA against human genes. Measured: 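ATP luminescence (CellTiter-Glo) viability per line relative to mean mock wells over all plates, and the ratio of CDH1-null to parental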. Scale: CDH1-null / parental viability ratio: higher = CDH1-null cells survive relatively better than parental.
The deposit covers about 18,000 reagents; shown is a part drawn at random. The numbers tell different reagents against one gene apart. Further read-outs or replicates are left out here. Reagent sequences are not shown. Not given: the amount of reagent, the time to read-out.

CDH1-null / parental viability ratio, by gene and reagent
TBX4: #1 1.09
RARS2: #1 1.15
ERP27: #1 0.92
DDIT4: #1 1.09
LMO4: #1 1.04
FASTKD1: #1 1.21
L3MBTL4: #1 1.16
KRTAP1-5: #1 0.77
LOC100288884 (retired record): #1 1.1
DOCK8: #1 1.22
TCP10L: #1 0.89
MAFG: #1 0.99
ANP32A: #1 0.91
ARV1: #1 1.02

Laid out differently: 4 of the entries above.
Gene,reagent no.,CDH1-null / parental viability ratio
TCP10L,1,0.89
MAFG,1,0.99
ANP32A,1,0.91
ARV1,1,1.02

Continued:
CDH1-null / parental viability ratio, by gene and reagent
MARK4: #1 0.94
FSTL4: #1 1.41
NR1I3: #1 1.21
CCL3: #1 1.39
CDS2: #1 0.75
CRCP: #1 1.34
G6PD: #1 0.81
PATJ: #1 1.01
DNHD1: #1 0.96; #2 1
DSN1: #1 1.05
OR1L4: #1 0.76
GAB1: #1 1.17
GJB4: #1 0.99
